# Data from the supplement of paper PMC8728848.
# The list shows a part of the results.
# B1: PX9937I-bfa-538-26-538 (Bacteroides fragilis) (protein)
# chain: DKLDLSPIDYYGSGSYWKTEAQATAYIDGIHKHLRDAAWQHTITFGELRGGRFITGASSDGMGVSNGDIILQNFDETHTGVSKFGDLFGRITNLNLFIARVTDATYLSDEMKNFYLGEVYGLRAFYYFDLYRIYGGVPLRLTADVVEGVIDPNKLYMARSTPKEVMTQIKSDLNKSMEYFGNMNDFDPYKRGKKVYWSKAATECLMGEVYLWTSKVTTGDDVANPADLTIAKTHLESVLNNYNLKMLDDFSQVFNAKNKANDEIIFAIRFLEGEATNSNGTFTYNVGTGSTKNRYQANGEVFGDALDIQNTGNQTYEYNKAVYQNFDDADTRKEATFIASYNKDGKTGELSLYGTHVRKNIGYVNAQGARVYCGDYIFYRLPWVYLTLAEIANMEGDNAAVAKYINLVRKRAYGNAWDETLYAYPETADFTTNELAILHEKDKEFIQEGQRWWDLRRMTLTKGGTPLVFCKEGSLLGDAPILNKSTEAHKLLWPIEKTMLNKDPALEQTPGYK
# Tests used:
# Test in all cases: glycan array binding signal (z-score within array); higher = stronger binding
# Details in all cases: glycan notation: IUPAC condensed, linker removed
# Gal3S(b1-4)Glc = molecular target: Gal3S(b1-4)Glc
# Procedure, shortened: (§1)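 Glycan array binding is given as a within-array Z-score, which can be read as non-binding when negative. The arrays, 3228 of them, came from the Consortium for Functional Glycomics database and were retained only where the protein sequence was available. Z-scores were averaged across arrays of the same protein sequence at different concentrations or buffers and across linkers.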
# Gal3S(b1-4)Glc6S = molecular target: Gal3S(b1-4)Glc6S
# Procedure, shortened: as §1
# Gal3S(b1-4)GlcNAc = molecular target: Gal3S(b1-4)GlcNAc
# Procedure, shortened: as §1
# [1] = molecular target: Gal3S(b1-4)[Fuc(a1-3)]Glc6S
# Procedure, shortened: as §1
# [2] = molecular target: Gal3S(b1-4)[Fuc(a1-3)]GlcNAc
# Procedure, shortened: as §1
# [3] = molecular target: Gal3S(b1-4)[Fuc(a1-3)]GlcNAc6S
# Procedure, shortened: as §1
# Gal3S4S(b1-4)GlcNAc = molecular target: Gal3S4S(b1-4)GlcNAc
# Procedure, shortened: as §1
# Gal3S6S(b1-4)GlcNAc = molecular target: Gal3S6S(b1-4)GlcNAc
# Procedure, shortened: as §1
# Gal3S6S(b1-4)GlcNAc6S = molecular target: Gal3S6S(b1-4)GlcNAc6S
# Procedure, shortened: as §1
# Gal4S(b1-4)GlcNAc = molecular target: Gal4S(b1-4)GlcNAc
# Procedure, shortened: as §1
# Gal4S6S(b1-4)GlcNAc = molecular target: Gal4S6S(b1-4)GlcNAc
# Procedure, shortened: as §1
# Gal6P(b1-4)GlcNAc = molecular target: Gal6P(b1-4)GlcNAc
# Procedure, shortened: as §1
# Gal6S(b1-3)GlcNAc = molecular target: Gal6S(b1-3)GlcNAc
# Procedure, shortened: as §1
# Gal6S(b1-3)GlcNAc6S = molecular target: Gal6S(b1-3)GlcNAc6S
# Procedure, shortened: as §1
# Gal6S(b1-4)Glc = molecular target: Gal6S(b1-4)Glc
# Procedure, shortened: as §1
# Gal6S(b1-4)Glc6S = molecular target: Gal6S(b1-4)Glc6S
# Procedure, shortened: as §1
# Gal6S(b1-4)GlcNAc = molecular target: Gal6S(b1-4)GlcNAc
# Procedure, shortened: as §1
# Gal6S(b1-4)GlcNAc6S = molecular target: Gal6S(b1-4)GlcNAc6S
# Procedure, shortened: as §1
# GalNAc(a1-3)Gal = molecular target: GalNAc(a1-3)Gal
# Procedure, shortened: as §1
# GalNAc(a1-3)GalNAc = molecular target: GalNAc(a1-3)GalNAc
# Procedure, shortened: as §1
# [4] = molecular target: GalNAc(a1-3)GalNAc(b1-3)Gal(a1-4)Gal(b1-4)Glc
# Procedure, shortened: as §1
# [5] = molecular target: GalNAc(a1-3)GalNAc(b1-3)Gal(a1-4)Gal(b1-4)GlcNAc
# Procedure, shortened: as §1
# GalNAc(b1-3)Gal = molecular target: GalNAc(b1-3)Gal
# Procedure, shortened: as §1
# [6] = molecular target: GalNAc(b1-3)Gal(a1-4)Gal(b1-4)GlcNAc
# Procedure, shortened: as §1
# [7] = molecular target: GalNAc(b1-3)Gal(a1-4)Gal(b1-4)GlcNAc(b1-3)Gal(b1-4)Glc
# Procedure, shortened: as §1
# [8] = molecular target: GalNAc(b1-3)Gal(a1-6)Gal(b1-4)Glc
# Procedure, shortened: as §1
# GalNAc(b1-3)GalNAc = molecular target: GalNAc(b1-3)GalNAc
# Procedure, shortened: as §1
# GalNAc(b1-3)GlcNAc = molecular target: GalNAc(b1-3)GlcNAc
# Procedure, shortened: as §1
# GalNAc(b1-4)Gal(b1-4)Glc = molecular target: GalNAc(b1-4)Gal(b1-4)Glc
# Procedure, shortened: as §1
# GalNAc(b1-4)GlcNAc = molecular target: GalNAc(b1-4)GlcNAc
# Procedure, shortened: as §1
# [9] = molecular target: GalNAc(b1-4)GlcNAc(b1-2)Man
# Procedure, shortened: as §1
# [10] = molecular target: GalNAc(b1-4)GlcNAc(b1-2)Man(a1-3)[GalNAc(b1-4)GlcNAc(b1-2)Man(a1-6)]Man(b1-4)GlcNAc(b1-4)GlcNAc
# Procedure, shortened: as §1
# [11] = molecular target: GalNAc(b1-4)GlcNAc(b1-3)GalNAc(b1-4)GlcNAc
# Procedure, shortened: as §1
# GalNAc(b1-4)GlcNAc6S = molecular target: GalNAc(b1-4)GlcNAc6S
# Procedure, shortened: as §1
# GalNAc(b1-6)GalNAc = molecular target: GalNAc(b1-6)GalNAc
# Procedure, shortened: as §1
# GalNAc3S(b1-4)GlcNAc = molecular target: GalNAc3S(b1-4)GlcNAc
# Procedure, shortened: as §1
# GalNAc3S(b1-4)GlcNAc3S = molecular target: GalNAc3S(b1-4)GlcNAc3S
# Procedure, shortened: as §1
# [12] = molecular target: GalNAc3S(b1-4)[Fuc(a1-3)]GlcNAc
# Procedure, shortened: as §1
# GalNAc4S6S(b1-4)GlcNAc = molecular target: GalNAc4S6S(b1-4)GlcNAc
# Procedure, shortened: as §1
# GalNAc6S(b1-4)GlcNAc = molecular target: GalNAc6S(b1-4)GlcNAc
# Procedure, shortened: as §1
# Glc(a1-4)Glc = molecular target: Glc(a1-4)Glc
# Procedure, shortened: as §1
# [13] = molecular target: Glc(a1-4)Glc(a1-4)Glc(a1-4)Glc
# Procedure, shortened: as §1
# Glc(a1-6)Glc(a1-6)Glc = molecular target: Glc(a1-6)Glc(a1-6)Glc
# Procedure, shortened: as §1
# [14] = molecular target: Glc(a1-6)Glc(a1-6)Glc(a1-6)Glc
# Procedure, shortened: as §1
# Glc(b1-4)Glc = molecular target: Glc(b1-4)Glc
# Procedure, shortened: as §1
binder,measurement,setting,value
B1,glycan array binding signal (z-score),Gal3S(b1-4)Glc,-0.549
same,glycan array binding signal (z-score),Gal3S(b1-4)Glc6S,0.71
same,glycan array binding signal (z-score),Gal3S(b1-4)GlcNAc,0.432
same,glycan array binding signal (z-score),[1],0.004
same,glycan array binding signal (z-score),[2],-0.401
same,glycan array binding signal (z-score),[3],-0.149
same,glycan array binding signal (z-score),Gal3S4S(b1-4)GlcNAc,0.428
same,glycan array binding signal (z-score),Gal3S6S(b1-4)GlcNAc,-0.27
same,glycan array binding signal (z-score),Gal3S6S(b1-4)GlcNAc6S,0.335
same,glycan array binding signal (z-score),Gal4S(b1-4)GlcNAc,0.065
same,glycan array binding signal (z-score),Gal4S6S(b1-4)GlcNAc,-0.741
same,glycan array binding signal (z-score),Gal6P(b1-4)GlcNAc,-0.37
same,glycan array binding signal (z-score),Gal6S(b1-3)GlcNAc,0.399
same,glycan array binding signal (z-score),Gal6S(b1-3)GlcNAc6S,0.325
same,glycan array binding signal (z-score),Gal6S(b1-4)Glc,-0.989
same,glycan array binding signal (z-score),Gal6S(b1-4)Glc6S,0.316
same,glycan array binding signal (z-score),Gal6S(b1-4)GlcNAc,-0.753
same,glycan array binding signal (z-score),Gal6S(b1-4)GlcNAc6S,-0.574
same,glycan array binding signal (z-score),GalNAc(a1-3)Gal,0.126
same,glycan array binding signal (z-score),GalNAc(a1-3)GalNAc,-0.513
same,glycan array binding signal (z-score),[4],-0.029
same,glycan array binding signal (z-score),[5],-0.912
same,glycan array binding signal (z-score),GalNAc(b1-3)Gal,-0.667
same,glycan array binding signal (z-score),[6],-0.278
same,glycan array binding signal (z-score),[7],-0.205
same,glycan array binding signal (z-score),[8],-0.495
same,glycan array binding signal (z-score),GalNAc(b1-3)GalNAc,-0.7
same,glycan array binding signal (z-score),GalNAc(b1-3)GlcNAc,0.267
same,glycan array binding signal (z-score),GalNAc(b1-4)Gal(b1-4)Glc,0.518
same,glycan array binding signal (z-score),GalNAc(b1-4)GlcNAc,-0.824
same,glycan array binding signal (z-score),[9],0.041
same,glycan array binding signal (z-score),[10],-0.139
same,glycan array binding signal (z-score),[11],-1.12
same,glycan array binding signal (z-score),GalNAc(b1-4)GlcNAc6S,0.142
same,glycan array binding signal (z-score),GalNAc(b1-6)GalNAc,-0.464
same,glycan array binding signal (z-score),GalNAc3S(b1-4)GlcNAc,-0.271
same,glycan array binding signal (z-score),GalNAc3S(b1-4)GlcNAc3S,-1.26
same,glycan array binding signal (z-score),[12],-0.573
same,glycan array binding signal (z-score),GalNAc4S6S(b1-4)GlcNAc,-0.708
same,glycan array binding signal (z-score),GalNAc6S(b1-4)GlcNAc,-0.41
same,glycan array binding signal (z-score),Glc(a1-4)Glc,-0.431
same,glycan array binding signal (z-score),[13],-0.521
same,glycan array binding signal (z-score),Glc(a1-6)Glc(a1-6)Glc,-0.812
same,glycan array binding signal (z-score),[14],-0.421
same,glycan array binding signal (z-score),Glc(b1-4)Glc,-0.101

# A portion of the results above, as a working copy:
binder,measurement,setting,value
B1,glycan array binding signal (z-score),Gal3S(b1-4)GlcNAc,0.432
same,glycan array binding signal (z-score),[1],0.004
same,glycan array binding signal (z-score),[2],-0.401
